## Assay results

Data taken from PubChem BioAssay AID504749, deposited by NCATS (2011).

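A panel of P. falciparum strains inside erythrocytes is exposed to compounds for three days, then a DNA-binding dye reports the amount of parasite DNA. Each compound was titrated across a series from about 0.000037 to 29 µM. The number is the fitted AC50, the concentration giving a half-maximal change in signal; a lower value means higher potency, whether the curve shows a decrease or an increase. Calls follow the curve class and fit quality: every row here is inconclusive, covering signal-raising curves and weak, poorly fitted, partial or highest-dose-only inhibition curves.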

Values are in µM. All entries here are filed as inconclusive. These entries are mostly ones the record files as inconclusive; other results of the assay are not listed here. A potency from a partial, single-point or poor curve is only a rough figure. Some entries filed as inconclusive have a full curve.

| # | structure | tested on / at | fitted potency (µM) | remark |
|---|---|---|---|---|
| 1 | `CNCCCCOc1ccccc1Cc1ccccc1` | CP252 | 8.912 | inhibitor, partial curve |
| 2 | `CNCCCCOc1ccccc1Cc1ccccc1` | CP247 | 6.31 | inhibitor, partial curve |
| 3 | `CNCCCCOc1ccccc1Cc1ccccc1` | JCK | 6.31 | inhibitor, partial curve, poor fit |
| 4 | `CNCCCCOc1ccccc1Cc1ccccc1` | CP217 | 7.08 | inhibitor, partial curve |
| 5 | `CNCCCCOc1ccccc1Cc1ccccc1` | ECU | 7.943 | inhibitor, partial curve, poor fit |
| 6 | `CNCCCCOc1ccccc1Cc1ccccc1` | DIV30 | 9.528 | inhibitor, partial curve |
| 7 | `CNCCCCOc1ccccc1Cc1ccccc1` | CP268 | 3.793 | inhibitor, partial curve |
| 8 | `CNCCCCOc1ccccc1Cc1ccccc1` | TAB165 | 5.012 | inhibitor, partial curve |
| 9 | `CNCCCCOc1ccccc1Cc1ccccc1` | ATS189 | 1 | inhibitor, full curve, poor fit |
| 10 | `CNCCCCOc1ccccc1Cc1ccccc1` | CP286 | 8.912 | inhibitor, partial curve |
| 11 | `CNCCCCOc1ccccc1Cc1ccccc1` | P93_24 | 7.08 | inhibitor, partial curve |
| 12 | `CNCCCCOc1ccccc1Cc1ccccc1` | CP194 | 6.746 | inhibitor, partial curve |
| 13 | `CNCCCCOc1ccccc1Cc1ccccc1` | N140 | 8.912 | inhibitor, partial curve |
| 14 | `CNCCCCOc1ccccc1Cc1ccccc1` | CP185 | 5.623 | inhibitor, partial curve |
| 15 | `CNCCCCOc1ccccc1Cc1ccccc1` | CP201 | 13.46 | inhibitor, single point |
| 16 | `CNCCCCOc1ccccc1Cc1ccccc1` | CP250 | 14.13 | inhibitor, partial curve, poor fit |
| 17 | `CNCCCCOc1ccccc1Cc1ccccc1` | CP269 | 13.46 | inhibitor, partial curve |
| 18 | `CNCCCCOc1ccccc1Cc1ccccc1` | CP297 | 1.694 | inhibitor, full curve |
| 19 | `CNCCCCOc1ccccc1Cc1ccccc1` | CP325 | 6.012 | inhibitor, partial curve |
| 20 | `CNCCCCOc1ccccc1Cc1ccccc1` | PC26 | 9.528 | inhibitor, partial curve |
| 21 | `CNCCCCOc1ccccc1Cc1ccccc1` | CP215 | 7.569 | inhibitor, partial curve |
| 22 | `CNCCCCOc1ccccc1Cc1ccccc1` | CP211 | 6.746 | inhibitor, partial curve |
| 23 | `CNCCCCOc1ccccc1Cc1ccccc1` | AS120 | 7.08 | inhibitor, partial curve |
| 24 | `CNCCCCOc1ccccc1Cc1ccccc1` | CP329 | 6.746 | inhibitor, partial curve, poor fit |
| 25 | `CNCCCCOc1ccccc1Cc1ccccc1` | TAB113 | 5.012 | inhibitor, partial curve |
| 26 | `CNCCCCOc1ccccc1Cc1ccccc1` | CP260 | 12.59 | inhibitor, partial curve |
| 27 | `CNCCCCOc1ccccc1Cc1ccccc1` | P94_40 | 4.467 | inhibitor, partial curve |
| 28 | `CNCCCCOc1ccccc1Cc1ccccc1` | CP315 | 7.569 | inhibitor, partial curve |
| 29 | `CNCCCCOc1ccccc1Cc1ccccc1` | DFO2036 | 11.22 | inhibitor, single point |
| 30 | `CNCCCCOc1ccccc1Cc1ccccc1` | CP305 | 6.746 | inhibitor, partial curve, poor fit |
| 31 | `CNCCCCOc1ccccc1Cc1ccccc1` | CP266 | 8.492 | inhibitor, partial curve |
| 32 | `CNCCCCOc1ccccc1Cc1ccccc1` | CP335 | 7.569 | inhibitor, partial curve |
| 33 | `CC(C)CCCC(C)C1CC(=O)C2=C3CCC4CC(O)CCC4(C)C3CCC21C` (configuration not stated) | CP286 | 14.13 | inhibitor, single point |
| 34 | `CC(C)CCCC(C)C1CC(=O)C2=C3CCC4CC(O)CCC4(C)C3CCC21C` (configuration not stated) | CP335 | 19.01 | inhibitor, single point |
| 35 | `CC(C)CCCC(C)C1CC(=O)C2=C3CCC4CC(O)CCC4(C)C3CCC21C` (configuration not stated) | 7G8 | 12.59 | inhibitor, single point |
| 36 | `CC(C)CCCC(C)C1CC(=O)C2=C3CCC4CC(O)CCC4(C)C3CCC21C` (configuration not stated) | ICS | 12.59 | inhibitor, single point |
| 37 | `CC(C)CCCC(C)C1CC(=O)C2=C3CCC4CC(O)CCC4(C)C3CCC21C` (configuration not stated) | CP237 | 6.31 | inhibitor, partial curve, poor fit |
| 38 | `CC(C)CCCC(C)C1CC(=O)C2=C3CCC4CC(O)CCC4(C)C3CCC21C` (configuration not stated) | 3D7 | 10 | inhibitor, single point |
| 39 | `CC(C)CCCC(C)C1CC(=O)C2=C3CCC4CC(O)CCC4(C)C3CCC21C` (configuration not stated) | CP260 | 17.78 | inhibitor, single point |
| 40 | `CC(C)CCCC(C)C1CC(=O)C2=C3CCC4CC(O)CCC4(C)C3CCC21C` (configuration not stated) | HB3 | 11.22 | inhibitor, single point |
| 41 | `CC(C)CCCC(C)C1CC(=O)C2=C3CCC4CC(O)CCC4(C)C3CCC21C` (configuration not stated) | TAB113 | 2.818 | inhibitor, single point |
| 42 | `CN1CCN(C(c2ccccc2)c2ccccc2)CC1` | CP215 | 4.548 | inhibitor, partial curve, poor fit |
| 43 | `CN1CCN(C(c2ccccc2)c2ccccc2)CC1` | CP291 | 7.208 | inhibitor, single point |
| 44 | `CN1CCN(C(c2ccccc2)c2ccccc2)CC1` | CP325 | 3.612 | inhibitor, partial curve, poor fit |
| 45 | `CN1CCN(C(c2ccccc2)c2ccccc2)CC1` | Dd2 | 3.548 | inhibitor, partial curve |

The last 6 entries again:

{"structure": "CC(C)CCCC(C)C1CC(=O)C2=C3CCC4CC(O)CCC4(C)C3CCC21C", "stereo": "configuration not stated", "tested on / at": "HB3", "fitted potency (µM)": "11.22", "remark": "inhibitor, single point"}
{"structure": "CC(C)CCCC(C)C1CC(=O)C2=C3CCC4CC(O)CCC4(C)C3CCC21C", "stereo": "configuration not stated", "tested on / at": "TAB113", "fitted potency (µM)": "2.818", "remark": "inhibitor, single point"}
{"structure": "CN1CCN(C(c2ccccc2)c2ccccc2)CC1", "tested on / at": "CP215", "fitted potency (µM)": "4.548", "remark": "inhibitor, partial curve, poor fit"}
{"structure": "CN1CCN(C(c2ccccc2)c2ccccc2)CC1", "tested on / at": "CP291", "fitted potency (µM)": "7.208", "remark": "inhibitor, single point"}
{"structure": "CN1CCN(C(c2ccccc2)c2ccccc2)CC1", "tested on / at": "CP325", "fitted potency (µM)": "3.612", "remark": "inhibitor, partial curve, poor fit"}
{"structure": "CN1CCN(C(c2ccccc2)c2ccccc2)CC1", "tested on / at": "Dd2", "fitted potency (µM)": "3.548", "remark": "inhibitor, partial curve"}